Data on four molecules can be found in PMC8134551.

By UniProt entry, the sequences of proteins in these tests, tags left out.
UniProt O95817: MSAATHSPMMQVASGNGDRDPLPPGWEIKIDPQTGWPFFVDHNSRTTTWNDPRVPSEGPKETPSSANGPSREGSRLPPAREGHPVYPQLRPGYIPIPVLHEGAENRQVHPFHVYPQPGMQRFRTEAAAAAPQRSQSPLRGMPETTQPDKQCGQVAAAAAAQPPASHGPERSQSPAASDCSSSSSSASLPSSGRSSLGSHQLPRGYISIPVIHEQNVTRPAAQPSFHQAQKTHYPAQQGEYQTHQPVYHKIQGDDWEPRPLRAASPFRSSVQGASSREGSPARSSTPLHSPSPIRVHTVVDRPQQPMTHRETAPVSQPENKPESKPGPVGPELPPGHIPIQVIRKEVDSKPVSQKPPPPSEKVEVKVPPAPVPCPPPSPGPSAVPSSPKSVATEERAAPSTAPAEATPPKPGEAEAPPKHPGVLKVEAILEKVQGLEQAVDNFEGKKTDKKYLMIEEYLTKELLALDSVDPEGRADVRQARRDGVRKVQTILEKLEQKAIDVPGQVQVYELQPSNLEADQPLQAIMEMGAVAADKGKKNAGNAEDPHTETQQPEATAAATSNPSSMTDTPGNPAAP
UniProt Q14315: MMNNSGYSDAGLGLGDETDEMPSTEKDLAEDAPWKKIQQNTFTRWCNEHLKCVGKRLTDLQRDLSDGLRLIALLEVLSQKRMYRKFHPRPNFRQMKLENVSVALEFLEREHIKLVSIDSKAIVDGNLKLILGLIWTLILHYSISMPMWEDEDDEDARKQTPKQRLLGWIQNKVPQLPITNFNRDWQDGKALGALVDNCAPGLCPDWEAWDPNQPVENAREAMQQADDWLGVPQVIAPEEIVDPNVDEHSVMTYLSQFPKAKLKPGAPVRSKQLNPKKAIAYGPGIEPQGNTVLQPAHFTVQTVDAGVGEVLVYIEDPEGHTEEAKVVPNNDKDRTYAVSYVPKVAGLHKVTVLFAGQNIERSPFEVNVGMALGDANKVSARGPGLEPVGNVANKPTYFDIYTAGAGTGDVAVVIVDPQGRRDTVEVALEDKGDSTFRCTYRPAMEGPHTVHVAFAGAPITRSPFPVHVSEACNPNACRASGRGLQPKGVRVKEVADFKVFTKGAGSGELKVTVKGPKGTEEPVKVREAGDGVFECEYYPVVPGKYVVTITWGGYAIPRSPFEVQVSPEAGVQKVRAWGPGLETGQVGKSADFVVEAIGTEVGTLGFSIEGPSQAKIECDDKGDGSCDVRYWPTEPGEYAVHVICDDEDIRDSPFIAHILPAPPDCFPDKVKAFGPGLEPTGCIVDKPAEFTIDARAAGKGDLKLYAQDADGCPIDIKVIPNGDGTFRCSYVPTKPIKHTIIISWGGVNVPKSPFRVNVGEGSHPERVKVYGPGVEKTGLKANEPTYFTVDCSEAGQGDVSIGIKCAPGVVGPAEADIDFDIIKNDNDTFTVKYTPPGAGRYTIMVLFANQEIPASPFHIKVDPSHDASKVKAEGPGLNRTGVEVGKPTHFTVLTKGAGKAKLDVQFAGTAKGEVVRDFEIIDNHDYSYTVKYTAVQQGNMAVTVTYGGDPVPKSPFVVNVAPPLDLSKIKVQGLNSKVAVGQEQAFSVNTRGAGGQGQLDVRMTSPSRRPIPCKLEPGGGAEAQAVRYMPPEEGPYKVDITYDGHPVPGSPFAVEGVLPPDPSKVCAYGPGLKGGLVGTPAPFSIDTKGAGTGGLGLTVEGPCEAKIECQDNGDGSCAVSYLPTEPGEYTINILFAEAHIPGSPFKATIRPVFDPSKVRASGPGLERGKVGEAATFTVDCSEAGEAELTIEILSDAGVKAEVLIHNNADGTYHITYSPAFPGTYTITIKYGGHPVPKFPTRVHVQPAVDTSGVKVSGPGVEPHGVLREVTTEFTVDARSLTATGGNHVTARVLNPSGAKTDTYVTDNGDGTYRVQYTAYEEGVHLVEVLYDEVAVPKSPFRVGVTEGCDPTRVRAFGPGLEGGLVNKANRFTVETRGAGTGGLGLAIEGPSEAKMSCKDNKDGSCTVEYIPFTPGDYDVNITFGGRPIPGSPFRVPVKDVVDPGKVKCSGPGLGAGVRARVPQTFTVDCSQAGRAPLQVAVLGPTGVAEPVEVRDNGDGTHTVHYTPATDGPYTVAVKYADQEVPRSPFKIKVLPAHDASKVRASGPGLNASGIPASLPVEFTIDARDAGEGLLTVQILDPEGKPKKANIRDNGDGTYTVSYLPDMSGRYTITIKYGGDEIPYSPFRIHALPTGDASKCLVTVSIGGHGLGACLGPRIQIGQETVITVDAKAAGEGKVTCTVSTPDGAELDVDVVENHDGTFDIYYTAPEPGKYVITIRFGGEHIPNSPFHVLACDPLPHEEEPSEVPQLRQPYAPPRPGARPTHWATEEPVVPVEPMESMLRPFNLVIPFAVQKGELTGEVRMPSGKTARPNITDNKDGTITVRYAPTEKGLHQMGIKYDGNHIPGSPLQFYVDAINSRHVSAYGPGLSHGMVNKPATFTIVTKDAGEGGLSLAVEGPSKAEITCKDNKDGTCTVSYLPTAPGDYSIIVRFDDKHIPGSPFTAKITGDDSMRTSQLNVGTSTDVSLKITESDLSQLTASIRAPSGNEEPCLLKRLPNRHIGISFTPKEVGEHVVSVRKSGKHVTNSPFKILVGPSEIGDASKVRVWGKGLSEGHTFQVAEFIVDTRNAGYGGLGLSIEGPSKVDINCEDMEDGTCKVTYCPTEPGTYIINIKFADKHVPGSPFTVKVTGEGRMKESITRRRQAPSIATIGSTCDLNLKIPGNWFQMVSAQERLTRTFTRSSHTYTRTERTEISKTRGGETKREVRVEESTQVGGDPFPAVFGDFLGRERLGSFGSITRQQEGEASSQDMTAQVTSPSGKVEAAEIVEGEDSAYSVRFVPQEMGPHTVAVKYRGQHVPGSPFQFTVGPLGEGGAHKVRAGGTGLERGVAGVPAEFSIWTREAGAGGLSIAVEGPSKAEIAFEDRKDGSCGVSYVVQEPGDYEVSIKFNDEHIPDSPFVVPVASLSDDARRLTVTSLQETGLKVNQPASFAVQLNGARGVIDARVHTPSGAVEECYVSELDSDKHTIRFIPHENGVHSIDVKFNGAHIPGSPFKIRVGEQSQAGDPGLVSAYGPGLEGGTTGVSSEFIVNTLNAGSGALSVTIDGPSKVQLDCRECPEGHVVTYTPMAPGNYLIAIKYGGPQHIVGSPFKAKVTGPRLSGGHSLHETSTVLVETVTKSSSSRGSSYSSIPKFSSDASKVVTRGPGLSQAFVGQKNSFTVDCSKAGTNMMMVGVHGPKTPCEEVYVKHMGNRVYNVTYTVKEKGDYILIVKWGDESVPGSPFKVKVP

What all share (assay): affinity purification with mass spectrometry; antibody (5 µg) crosslinked to Dynabeads Protein G; incubated with human LV myofilament-enriched protein lysate (200 µl of 2 µg/µl) 10 min at room temperature; washed seven times with TBS-T; eluted with 0.15% TFA; in-solution digestion, LC-MS/MS; immunoprecipitations for BAG3, HSP70 and HSPB8
Experiment [1] concerns the target T1, HSPB8 (human (endogenous in left ventricle tissue)) (UniProt Q9UJY1).
T1 sequence: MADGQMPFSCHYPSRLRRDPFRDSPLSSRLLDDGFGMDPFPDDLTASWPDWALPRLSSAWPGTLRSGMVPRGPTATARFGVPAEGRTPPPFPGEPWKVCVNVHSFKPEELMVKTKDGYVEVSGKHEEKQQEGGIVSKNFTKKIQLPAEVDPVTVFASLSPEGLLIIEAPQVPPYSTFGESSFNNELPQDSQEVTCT

The target of experiment [2] is Bcl2-associated athanogene 3 (BAG3) (human (endogenous in left ventricle tissue)) (UniProt O95817).
Experiment [3] shares this target. This is another data set of the same source.
Experiment [4] addresses HSP70 (human (endogenous in left ventricle tissue)).

Read-outs that look alike come from different tables or passages of the source. These are yes or no findings as the source states them, for the method shown. Binding seen in cells or lysates may run through a third protein. These calls come from enrichment with a bait or labelling near it, and not all partners need be listed.

For the molecule “Bcl2-associated athanogene 3 (BAG3) (from UniProt O95817 1-575)”, in experiment [1], the binding entry is on record as “binds”.

Turning to HSP70, the binding entry in experiment [1] is listed as “binds”.

Consider filamin-C (from UniProt Q14315 1-2725), for which the binding result in experiment [2] and in experiment [1] was “binds” throughout.

B1: HSPB8 (protein, UniProt Q9UJY1 1-196)
chain: MADGQMPFSCHYPSRLRRDPFRDSPLSSRLLDDGFGMDPFPDDLTASWPDWALPRLSSAWPGTLRSGMVPRGPTATARFGVPAEGRTPPPFPGEPWKVCVNVHSFKPEELMVKTKDGYVEVSGKHEEKQQEGGIVSKNFTKKIQLPAEVDPVTVFASLSPEGLLIIEAPQVPPYSTFGESSFNNELPQDSQEVTCT
As to B1, the binding result in experiment [3] and in experiment [4] was “binds” in each case.
